This is an account of results in article doi:10.1101/2022.02.22.481420.

Chains of the proteins cited; added tags and fusions are not shown.
UniProt Q15796: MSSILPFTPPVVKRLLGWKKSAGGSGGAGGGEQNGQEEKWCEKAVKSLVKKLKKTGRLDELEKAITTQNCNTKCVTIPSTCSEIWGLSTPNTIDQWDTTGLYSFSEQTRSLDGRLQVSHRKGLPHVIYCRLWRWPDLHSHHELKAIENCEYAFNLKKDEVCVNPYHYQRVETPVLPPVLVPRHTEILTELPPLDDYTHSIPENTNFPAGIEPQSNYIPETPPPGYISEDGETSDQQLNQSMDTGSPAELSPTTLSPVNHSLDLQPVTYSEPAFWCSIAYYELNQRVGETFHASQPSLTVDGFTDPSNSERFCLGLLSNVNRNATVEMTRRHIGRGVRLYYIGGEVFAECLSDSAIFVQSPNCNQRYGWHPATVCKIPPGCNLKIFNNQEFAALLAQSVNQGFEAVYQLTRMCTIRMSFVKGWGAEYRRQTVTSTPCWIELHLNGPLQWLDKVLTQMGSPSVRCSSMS
UniProt P84022: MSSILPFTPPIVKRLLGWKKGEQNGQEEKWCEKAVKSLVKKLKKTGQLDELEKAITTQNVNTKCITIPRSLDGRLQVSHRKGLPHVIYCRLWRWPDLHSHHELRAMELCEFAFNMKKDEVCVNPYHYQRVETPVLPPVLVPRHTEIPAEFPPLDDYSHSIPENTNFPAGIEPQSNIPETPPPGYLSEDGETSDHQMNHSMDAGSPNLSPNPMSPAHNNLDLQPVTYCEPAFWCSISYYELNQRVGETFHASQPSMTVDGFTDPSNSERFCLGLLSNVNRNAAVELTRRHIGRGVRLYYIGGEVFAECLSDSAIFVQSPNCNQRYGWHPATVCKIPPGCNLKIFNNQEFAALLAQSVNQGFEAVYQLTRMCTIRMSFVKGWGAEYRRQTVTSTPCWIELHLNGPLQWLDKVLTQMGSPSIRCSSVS

Results are given in words; binding and its absence hold for the method and conditions named. Binding seen in cells or lysates may run through a third protein. Some binding calls cover weakened binding; strength is not graded here. Tags and fused reporters may be left off the sequences shown.

This assay has as its target T1, GFP-tagged, RNAi-resistant wild-type SKOR1 (SKI family transcriptional corepressor 1) (human) (UniProt P84550).
T1 sequence: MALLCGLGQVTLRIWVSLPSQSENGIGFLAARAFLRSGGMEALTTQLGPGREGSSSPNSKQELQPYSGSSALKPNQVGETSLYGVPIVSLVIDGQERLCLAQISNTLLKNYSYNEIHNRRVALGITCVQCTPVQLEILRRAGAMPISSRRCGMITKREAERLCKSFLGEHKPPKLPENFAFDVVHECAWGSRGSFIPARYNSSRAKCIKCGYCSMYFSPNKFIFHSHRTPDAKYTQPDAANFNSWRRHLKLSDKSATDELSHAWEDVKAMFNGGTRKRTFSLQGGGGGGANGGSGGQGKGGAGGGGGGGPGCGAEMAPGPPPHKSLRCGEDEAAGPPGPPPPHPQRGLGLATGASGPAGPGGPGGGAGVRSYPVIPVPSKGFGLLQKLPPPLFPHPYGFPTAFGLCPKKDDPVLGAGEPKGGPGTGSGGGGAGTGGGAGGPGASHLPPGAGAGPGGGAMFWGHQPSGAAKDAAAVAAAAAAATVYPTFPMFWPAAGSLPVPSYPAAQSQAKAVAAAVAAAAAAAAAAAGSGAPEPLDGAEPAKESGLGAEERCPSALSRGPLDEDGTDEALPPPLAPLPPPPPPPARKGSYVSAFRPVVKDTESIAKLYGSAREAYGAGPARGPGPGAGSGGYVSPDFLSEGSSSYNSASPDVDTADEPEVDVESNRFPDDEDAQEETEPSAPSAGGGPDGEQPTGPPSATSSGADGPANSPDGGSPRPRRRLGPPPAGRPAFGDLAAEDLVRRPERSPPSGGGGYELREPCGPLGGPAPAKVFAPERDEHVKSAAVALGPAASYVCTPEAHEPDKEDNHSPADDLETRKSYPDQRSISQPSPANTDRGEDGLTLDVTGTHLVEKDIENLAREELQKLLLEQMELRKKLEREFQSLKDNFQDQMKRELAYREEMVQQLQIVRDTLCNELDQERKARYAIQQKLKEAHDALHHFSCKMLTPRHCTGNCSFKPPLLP
As to the kind of experiment: co-IP.

Smad2 (from UniProt Q15796 1-467): the binding entry is “binds”.

Turning to Smad3 (from UniProt P84022 1-425), the binding entry is on record as “binds”.
